Whole data set: some 33,000 sequences, median “E-score (-0.5 to 0.5)” near -0.0059, cut for the highest 2% near 0.26. This is one part of the list.

In the test the target is T1, Cin5 (UniProt P40917).
T1 sequence: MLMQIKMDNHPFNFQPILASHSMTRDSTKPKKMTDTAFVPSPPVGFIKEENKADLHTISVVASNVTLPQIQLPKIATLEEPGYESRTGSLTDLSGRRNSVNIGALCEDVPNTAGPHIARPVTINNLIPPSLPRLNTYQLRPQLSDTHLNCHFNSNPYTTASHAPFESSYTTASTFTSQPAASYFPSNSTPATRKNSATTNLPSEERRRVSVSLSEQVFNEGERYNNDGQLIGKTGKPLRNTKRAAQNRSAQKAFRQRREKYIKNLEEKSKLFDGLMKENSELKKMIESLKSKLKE
Description: PBM E-score (8-mer binding enrichment) (E-score (-0.5 to 0.5)); higher = stronger / more preferred TF binding. To be noted: protein concentration: 100 nM; construct: GST-full length. As to the method:
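Universal 'all 10-mer' protein binding microarrays (Agilent AMADID 015681) probed with GST-tagged S. cerevisiae TFs (full-length or DBD) made by in vitro transcription/translation (PURExpress), about 100-200 nM. Bound TF was detected with fluorescent anti-GST. Each ungapped 8-mer (which stands for itself and its reverse complement) is scored by the PBM enrichment score (E-score), a modified Wilcoxon-Mann-Whitney statistic from -0.5 to +0.5, computed with the Universal PBM Analysis Suite. Scale: above 0.35 generally sequence-specific binding.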
In the case of AGTCAAGC, the “PBM E-score” value was -0.0384.

In the case of CGATGGTA, the “PBM E-score” value is 0.025.

For the sequence CAAAGGAC, the “PBM E-score” value was -0.217.

Consider ATTTTTAA, for which the “PBM E-score” value turned out to be 0.176.

On to TCGCAAAA, for which the “PBM E-score” value was 0.156.

On to GGCGATAC, for which the “PBM E-score” value was -0.0061.

For the sequence TCGCTCAA, the “PBM E-score” value was 0.176.

With TCGCGACA, the “PBM E-score” value was found to be 0.108.

Regarding CCAGGGGA, the “PBM E-score” value was -0.253.

On to CTTACCGA, for which the “PBM E-score” value stood at 0.0713.

For AAGCATGA, the “PBM E-score” value worked out at 0.0253.

As to AATGATGA, the “PBM E-score” value worked out at 0.236.

In the case of CTGGGATA, the “PBM E-score” value was -0.0527.

Consider AGAATTTA, for which the “PBM E-score” value was determined as 0.126.

For the sequence TCGTTTAA, the “PBM E-score” value came to 0.0513.

Regarding AGCCACCA, the “PBM E-score” value was -0.134.

Take ATATATAG: the “PBM E-score” value was found to be 0.26.

Consider TCTAATAA, for which the “PBM E-score” value is 0.0206.

ACGTATGC: the “PBM E-score” value was 0.0624.

Take ATTGAGGA: the “PBM E-score” value was determined as 0.0445.

Take AAGGGTGG: the “PBM E-score” value was -0.117.

ACACAGTG: the “PBM E-score” value stood at 0.128.

As for TAAGAACA, the “PBM E-score” value came out at 0.29.

Consider GTTCTTTA, for which the “PBM E-score” value was 0.103.

For the sequence GATCAACC, the “PBM E-score” value came out at 0.0375.

Regarding ATTCATGC, the “PBM E-score” value is 0.103.

In the case of GTTCGCTA, the “PBM E-score” value was -0.0567.

For AGCAACGA, the “PBM E-score” value is 0.125.

As for ACCCTGAA, the “PBM E-score” value is -0.0938.

Consider GATACGCA, for which the “PBM E-score” value is 0.0118.

Take GAGCAGGA: the “PBM E-score” value was -0.0677.

Regarding GGCAAGAA, the “PBM E-score” value was 0.00176.

As for GGGGCACA, the “PBM E-score” value is -0.188.

On to ATAGGGAC, for which the “PBM E-score” value is -0.15.

For GCGTTGCA, the “PBM E-score” value is -0.11.

In the case of AAAGCCTG, the “PBM E-score” value is -0.165.

Regarding TAGGCCTA, the “PBM E-score” value was -0.00462.

For GCCTCGAA, the “PBM E-score” value was -0.0384.

As for ACTGGAGG, the “PBM E-score” value is -0.0319.

Regarding GCCGCGCC, the “PBM E-score” value is -0.199.

For GCTACCAA, the “PBM E-score” value was -0.191.

As for AGATAGTG, the “PBM E-score” value came to 0.0979.

As for CCTAGAAG, the “PBM E-score” value is -0.212.

Turning to CTGAATTC, the “PBM E-score” value was found to be 0.048.

As for ACTCTGGA, the “PBM E-score” value was 0.177.

As for AGGCTTCA, the “PBM E-score” value is -0.167.

Take ATGTTCCA: the “PBM E-score” value was 0.0609.

As to CCACCACG, the “PBM E-score” value was -0.0848.

As for GCCAAGCC, the “PBM E-score” value is -0.174.

Consider AACCTCAC, for which the “PBM E-score” value is -0.124.

Consider CCAGTCTC, for which the “PBM E-score” value is -0.217.

As for ACGGATTA, the “PBM E-score” value is 0.066.

With AATGTGAA, the “PBM E-score” value was determined as 0.134.

Regarding TCGTACCA, the “PBM E-score” value is 0.0222.

Regarding ACTGCGCT, the “PBM E-score” value was determined as 0.129.

In the case of CTAAACCA, the “PBM E-score” value is -0.118.

In the case of ATATCATC, the “PBM E-score” value came out at 0.243.

GGGTCGGA: the “PBM E-score” value is -0.331.

Regarding ACTGGTGG, the “PBM E-score” value was -0.091.

Regarding GAACCTCA, the “PBM E-score” value is -0.156.

As for CGAGTGTC, the “PBM E-score” value is -0.108.

Regarding GTGGACAA, the “PBM E-score” value was determined as 0.212.

Take AAGGGTCC: the “PBM E-score” value is -0.276.

Take CTATTACA: the “PBM E-score” value is 0.181.

As for TAAGCCCA, the “PBM E-score” value was determined as 0.219.

Turning to AACGTCCC, the “PBM E-score” value is -0.12.

With CGATCGCC, the “PBM E-score” value worked out at 0.0437.

On to CCAGCTAC, for which the “PBM E-score” value was -0.126.

In the case of AAAGGAGC, the “PBM E-score” value was -0.19.

Regarding CACGCTAC, the “PBM E-score” value is -0.134.

For the sequence GAAGTACA, the “PBM E-score” value amounted to 0.0442.

For the sequence ACTAGCCA, the “PBM E-score” value was -0.00477.

Regarding AAGACTCC, the “PBM E-score” value was -0.257.

As to CAGCTTTA, the “PBM E-score” value came out at 0.118.

AGCGCCTA: the “PBM E-score” value is -0.00036.

Regarding CGGGTGTC, the “PBM E-score” value was -0.00474.

For the sequence GGGTTTCA, the “PBM E-score” value stood at 0.0671.

For GCCGGATA, the “PBM E-score” value came to 0.0793.

Turning to CGCGCTAC, the “PBM E-score” value is 0.029.

On to GGTCCCGA, for which the “PBM E-score” value was -0.22.

Turning to ATAGCCTC, the “PBM E-score” value is -0.104.

On to AAACTTGG, for which the “PBM E-score” value was determined as 0.111.

Take TGTCAACA: the “PBM E-score” value is 0.029.

ACTCGGTG: the “PBM E-score” value is -0.146.

For the sequence ATGTAACC, the “PBM E-score” value was 0.0651.

As for CAGACAAC, the “PBM E-score” value is 0.0843.

In the case of CTCTTTCC, the “PBM E-score” value is -0.157.

ACACGGAG: the “PBM E-score” value was -0.0287.

With CCTACTGA, the “PBM E-score” value is 0.034.

As to GAAGCCTC, the “PBM E-score” value is -0.202.

For TGAGTCCA, the “PBM E-score” value is -0.11.

On to AATGATGT, for which the “PBM E-score” value worked out at 0.148.

On to AACTACAA, for which the “PBM E-score” value came to 0.165.

With AGTTCCGG, the “PBM E-score” value stood at 0.0429.

As for GCCTTACC, the “PBM E-score” value is -0.233.

As for GGTGCGGA, the “PBM E-score” value was determined as 0.0778.

GCACCGTA: the “PBM E-score” value is 0.059.

For the sequence CGCACAAA, the “PBM E-score” value turned out to be 0.205.

ACGAACCT: the “PBM E-score” value was -0.0286.

In the case of ATTCGGAA, the “PBM E-score” value came to 0.13.

In the case of CTAGTATA, the “PBM E-score” value is 0.0284.

Turning to AGGGTACT, the “PBM E-score” value was -0.105.

For the sequence ATCCAGCG, the “PBM E-score” value was 0.137.

Turning to ACTCAGAG, the “PBM E-score” value is 0.0366.

Turning to TAGACATA, the “PBM E-score” value is 0.00513.

Consider AGACTCAT, for which the “PBM E-score” value turned out to be 0.00954.

As to ATTCGGGG, the “PBM E-score” value came to 0.0248.

Take CACCTGAC: the “PBM E-score” value was -0.0148.

ATAAGCTG: the “PBM E-score” value is 0.179.
